The source of these data is doi:10.1101/2024.02.24.581873.

Holding throughout (test): filter binding
For data set [1], the target named is T1, ScThg1 (Saccharomyces cerevisiae) (UniProt P53215).
T1 sequence (looked up, limits assumed): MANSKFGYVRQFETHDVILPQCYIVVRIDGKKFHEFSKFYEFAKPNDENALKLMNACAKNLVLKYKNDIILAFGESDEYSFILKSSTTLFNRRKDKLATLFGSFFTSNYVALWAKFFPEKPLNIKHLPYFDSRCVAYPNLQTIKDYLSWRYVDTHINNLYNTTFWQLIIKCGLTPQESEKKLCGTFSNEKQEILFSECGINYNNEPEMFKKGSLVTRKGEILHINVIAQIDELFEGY
The following applies: 10 mM Mg2+, linear non-specific binding; 5'-triphosphate.

In data set [2] the test system is MsTLP (Methanobrevibacter smithii). The following applies: 10 mM Mg2+, no detectable binding up to 10 uM; 5'-triphosphate.
Data set [3] has as its system BtTLP (Bacillus thuringiensis). To be noted: 10 mM Mg2+, no detectable binding up to 10 uM; 5'-triphosphate.
Data set [4] concerns DdiTLP4 (Dictyostelium discoideum). To be noted: 10 mM Mg2+, no detectable binding up to 10 uM; 5'-triphosphate.

Construct, isoform or probe ends are uncertain for at least one entry. For some of these results: A negative result means that nothing was seen under these conditions. For some of these results: Tags and fusion partners may be left off the protein sequences shown.

Sequence “GGGAGACCACAACGGUUUCCCUCUAG [26-mer RNA substrate]” had a Kd in data set [1] above 10 µM. Besides, the binding result in data set [2], in data set [3] and in data set [4] was “no binding” each time.

What is called Kd is the concentration at which binding is half-saturated. Lower therefore signals higher affinity.
